{
  "source": "PubChem BioAssay AID651640",
  "about": "(Broad Institute, 2012)",
  "note": "“And” between values parts separate entries of the source, which are not always exact repeats. Identical values can stand only once. Screen size: about 350,000 compounds; about 6,000 (1.7%) were called active. The shares of active, inactive and inconclusive entries below differ from those in the screen. Cut-off read from the data, not from the text of the source: active = CPE inhibition above about 20% (passing the limit was not always enough); inconclusive = no clear call, values can overlap the other calls; tested in BHK-21 cells.",
  "data": [
    {"assay": "protection of cells from dengue 2 killing – plate reader, single concentration, primary screen (AID 651640);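 note: 0% = median of neutral control wells and 100% = median of positive control wells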", "details": "DENV2-infected cells, cytopathic effect rescue, at 9.99 µM, active compounds read high", "values": [
      {"smiles": "Cc1noc(C)c1S(=O)(=O)Nc1ccc2c(c1)C(=O)N([C@H](C)CO)C[C@H](C)[C@H](CN(C)CC1CCCCC1)O2", "CPE inhibition": "inconclusive: 30.3%"},
      {"smiles": "C[C@H](CO)N1C[C@H](C)[C@@H](CN(C)C(=O)c2ccccn2)Oc2ncc(-c3ccccc3F)cc2C1=O", "CPE inhibition": "active: 20.8%"},
      {"smiles": "C[C@H](NC(=O)c1nc[nH]c1C(=O)N1CCN(C(=O)OC(C)(C)C)CC1)C(=O)OCc1ccccc1", "CPE inhibition": "inconclusive: 23%"},
      {"smiles": "O=C(NCCS(=O)(=O)N1CCN(C(=O)c2ccco2)CC1)c1ccccc1", "CPE inhibition": "inconclusive: 41.8%"},
      {"smiles": "CCCC#Cc1ccc([C@@H]2[C@H]3CN(C(=O)Cc4cccnc4)CC(=O)N3[C@H]2CO)cc1", "CPE inhibition": "inconclusive: 20.5%"},
      {"smiles": "COc1ccccc1S(=O)(=O)N[C@H]1C=C[C@H](CC(=O)NCc2cccc(F)c2)O[C@H]1CO", "CPE inhibition": "active: 28.4%"},
      {"smiles": "CCCCCCN1CCN(C2CN(Cc3ccc(F)cc3)S(=O)(=O)C2)CC1", "note": "(centres undefined)", "CPE inhibition": "active: 30.8%"},
      {"smiles": "COc1ccccc1NC(=O)N1CC(=O)N2[C@H](CO)[C@@H](c3ccc(-c4ccc(F)cc4)cc3)[C@H]2C1", "CPE inhibition": "active: 28.6%"},
      {"smiles": "C[C@@H]1COC(=O)[C@@H](CC(=O)OC(C)(C)C)C/C=C\\C[C@@H](CC(=O)NCCO)C(=O)N1", "CPE inhibition": "active: 24.2%"},
      {"smiles": "CC(C)(C)c1ccc(C(=O)NCCN2CCCC2)cc1", "CPE inhibition": "inconclusive: 30.9%"},
      {"smiles": "CN(C[C@H](Cc1ccccc1)N(C[C@@H](Cc1cccc2ccccc12)N(CCc1ccccc1)N=O)N=O)N=O", "CPE inhibition": "inconclusive: 25.1%"},
      {"smiles": "CN(C)CC(=O)N1[C@@H]2Cn3c(ccc(-c4ccccc4)c3=O)[C@H]1[C@@H](C(=O)N1CCCCC1)[C@@H]2CO", "CPE inhibition": "inactive: 5.6%"},
      {"smiles": "O=C(O)C1(c2ccccc2)CCN(S(=O)(=O)c2cccs2)CC1", "CPE inhibition": "inconclusive: 26%"},
      {"smiles": "COc1ccc2c3c(n(C)c2c1)[C@H](CO)NCC31CN(C(=O)Nc2ccccc2F)C1", "CPE inhibition": "active: 41.2%"},
      {"smiles": "O=C(N[C@H]1CC[C@H](CCNS(=O)(=O)c2ccc(Cl)cc2)O[C@@H]1CO)c1cnccn1", "CPE inhibition": "active: 49%"},
      {"smiles": "C=C(C(=O)O)C(CCCCCC)C(=O)O", "note": "(centres undefined)", "CPE inhibition": "active: 89.9%"},
      {"smiles": "O=C(C1CCCC1)N1C[C@@H]2[C@H](c3ccccc31)[C@H](CO)N2C(=O)c1ccccc1", "CPE inhibition": "inactive: 19.7%"},
      {"smiles": "Cc1cccc(S(=O)(=O)N2C[C@H](O)COC[C@H]3O[C@@H](CC(=O)Nc4ccccc4)CC[C@@H]32)c1", "CPE inhibition": "inconclusive: 64.3%"},
      {"smiles": "CO[C@@H]1CN(C)C(=O)c2ccc(NC(=O)C3CCOCC3)cc2OC[C@@H](C)NC[C@H]1C", "CPE inhibition": "inconclusive: 24.8%"},
      {"smiles": "CCN(CC)S(=O)(=O)c1ccc(O)c(C(=O)OCC(=O)Nc2ccc(OC(F)(F)F)cc2)c1", "CPE inhibition": "inactive: -4.31%"},
      {"smiles": "COc1cc2c(cc1NC(=O)/C=C/c1ccc([N+](=O)[O-])cc1)oc1ccccc12", "CPE inhibition": "active: 38.5%"},
      {"smiles": "C[C@@H]1CN([C@@H](C)CO)C(=O)c2cc(NS(=O)(=O)c3cn(C)cn3)ccc2O[C@@H](C)CCCCO[C@H]1CN(C)C(=O)c1ccncc1", "CPE inhibition": "inactive: 8.47%"},
      {"smiles": "CCOC(=O)c1cnn(-c2ccccc2)c1NC(=O)CCl", "CPE inhibition": "inconclusive: 30.2%"},
      {"smiles": "O=C(C[C@@H]1C=C[C@H](NS(=O)(=O)c2ccc(F)cc2)[C@@H](CO)O1)NCc1ccc(Cl)c(Cl)c1", "CPE inhibition": "inactive: -1.8%"},
      {"smiles": "CCCC(=O)N1CCOCC1c1cc(C(=O)NCc2ccccc2)no1", "note": "(centres undefined)", "CPE inhibition": "inconclusive: 40.1%"},
      {"smiles": "C/C=C/c1ccc(C2[C@H]3CNC[C@@H]2N3S(=O)(=O)c2ccc(C)cc2)cc1", "note": "(some centres undefined)", "CPE inhibition": "inactive: 3.83% and inactive: -1.19%"},
      {"smiles": "C[C@H](CO)N1C[C@H](C)[C@H](CN(C)C(=O)Nc2ccc(C(F)(F)F)cc2)Oc2c(NC(=O)Nc3ccccc3)cccc2C1=O", "CPE inhibition": "inactive: -9.09%"},
      {"smiles": "COc1ccccc1N1CCN(S(=O)(=O)c2ccccc2F)CC1", "CPE inhibition": "inactive: -12.9%"},
      {"smiles": "COC(=O)C12OCC34C(CC5C(C)=C(O)C(=O)CC5(C)C3C(O)C1O)OC(=O)C(OC(=O)C=C(C)C)C24", "note": "(centres undefined)", "CPE inhibition": "inconclusive: 29.5%"},
      {"smiles": "C[C@@H]1CN([C@H](C)CO)C(=O)c2cc(-c3ccc(C#N)cc3)cnc2O[C@H]1CN(C)Cc1cncnc1", "CPE inhibition": "inconclusive: 24.7%"},
      {"smiles": "COc1ccc(NC(=O)N(C)C[C@@H]2OCCCC[C@@H](C)Oc3ccc(NS(=O)(=O)c4ccc(Cl)cc4)cc3C(=O)N([C@@H](C)CO)C[C@@H]2C)cc1", "CPE inhibition": "inconclusive: 35.4%"},
      {"smiles": "COc1cccc(NC(=O)N2CC(=O)N3[C@@H](CO)[C@H](c4ccc(C#CC5CCCC5)cc4)[C@@H]3C2)c1", "CPE inhibition": "inconclusive: 22.1%"},
      {"smiles": "CC(OC(=O)c1ccccc1C(=O)N(C)Cc1ccccc1)C(=O)NC1(C#N)CCCCC1", "note": "(centres undefined)", "CPE inhibition": "inconclusive: 20.8%"},
      {"smiles": "CCc1nnc(N/N=C/c2ccc(O)c(OC)c2)n1N", "CPE inhibition": "inconclusive: 22.7%"},
      {"smiles": "CC(=O)C1=CCC(c2ccccc2)N(S(=O)(=O)c2ccc(C)cc2)C1", "note": "(centres undefined)", "CPE inhibition": "inconclusive: 49.7%"},
      {"smiles": "CC(C)CC#Cc1ccc2c(c1)O[C@H](CN(C)C(=O)Cc1cccnc1)[C@H](C)CN([C@H](C)CO)S2(=O)=O", "CPE inhibition": "inactive: 2.37%"},
      {"smiles": "O=C(Nc1ccnn1C1CCN(Cc2c(F)cccc2Cl)CC1)C1CCCC1", "CPE inhibition": "inconclusive: 36.7%"},
      {"smiles": "COCCNc1nc(-c2cc(-c3ccc(Cl)cc3)on2)cc(C(C)C)n1", "CPE inhibition": "inconclusive: 24.9%"},
      {"smiles": "CCN(CC)c1ccc(C(=O)OCc2c(C)noc2C)cc1", "CPE inhibition": "inconclusive: 40.5%"},
      {"smiles": "O=C(CSc1nnc2ccc(-c3ccccn3)nn12)Nc1cccc(F)c1", "CPE inhibition": "inconclusive: 24.6%"},
      {"smiles": "C[C@H](CO)N1C[C@H](C)[C@@H](CN(C)Cc2ccc(Cl)c(Cl)c2)Oc2c(NC(=O)CCC(F)(F)F)cccc2C1=O", "CPE inhibition": "active: 22.4%"},
      {"smiles": "O=c1c2ccccc2oc2ccc(NCCCN3CCOCC3)cc12", "CPE inhibition": "inconclusive: 55.2%"},
      {"smiles": "CC1CN(C(=O)COC(=O)c2cncc(Br)c2)CC(C)O1", "note": "(centres undefined)", "CPE inhibition": "inconclusive: 52.5%"},
      {"smiles": "COc1cc(C(=O)NC(=S)NCc2ccncc2)cc(OC)c1OC", "CPE inhibition": "inactive: -0.807%"},
      {"smiles": "COC(=O)c1cccc(NC(=O)C2CCCN2C(=O)c2cccs2)c1", "note": "(centres undefined)", "CPE inhibition": "inconclusive: 29.3%"},
      {"smiles": "COc1ccccc1CCNS(=O)(=O)CCNC(=O)c1ccc2c(c1)OCO2", "CPE inhibition": "active: 39.8%"},
      {"smiles": "CCCN1CC(=O)N2Cc3[nH]c4ccccc4c3C[C@H]2C1=O", "CPE inhibition": "inconclusive: 30.4%"},
      {"smiles": "CC1=C(C(=O)OC(C)(C)C)C(c2cccs2)NC(=O)N1", "note": "(centres undefined)", "CPE inhibition": "inconclusive: 20.1%"},
      {"smiles": "COc1ccccc1C(=O)COC(=O)Cc1n[nH]c(=O)c2ccccc12", "CPE inhibition": "inconclusive: 37%"},
      {"smiles": "CNC(=O)C[C@@H]1CC[C@@H]2[C@H](COc3ccc(NC(=O)c4ccc(F)c(F)c4)cc3C(=O)N2C)O1", "CPE inhibition": "active: 97.1%"},
      {"smiles": "COCCn1c(SCC(=O)NC2(C#N)CCCCC2)nc2ccccc2c1=O", "CPE inhibition": "inconclusive: 50.1%"},
      {"smiles": "CCCCN(C(=O)CC(c1ccccc1)c1ccccc1)c1c(N)n(CCC)c(=O)[nH]c1=O", "CPE inhibition": "inactive: -14.7%"},
      {"smiles": "Cc1cc(C)n(CC(=O)NNC(=O)c2cncc(Br)c2)n1", "CPE inhibition": "inconclusive: 20.2%"},
      {"smiles": "CC(O)(Cc1cccnc1)c1cccs1", "note": "(centres undefined)", "CPE inhibition": "active: 77%"},
      {"smiles": "CCc1ccc(NC2CC(=O)N(CCc3ccc(OC)c(OC)c3)C2=O)cc1", "note": "(centres undefined)", "CPE inhibition": "inactive: 3.24%"},
      {"smiles": "COc1ccccc1CN(C)C(=O)c1cc(-c2cccs2)nc2ccccc12", "CPE inhibition": "inconclusive: 20.3%"},
      {"smiles": "Cc1cccc(C)c1Cn1c(C)c(C(=O)NCCC#N)sc1=O", "CPE inhibition": "inconclusive: 62%"},
      {"smiles": "CC(C)NC(=O)Nc1ccc2c(c1)C(=O)N([C@H](C)CO)C[C@H](C)[C@@H](CN(C)C(=O)NC(C)C)O2", "CPE inhibition": "inconclusive: 43.8%"},
      {"smiles": "COc1ccccc1-c1cn(-c2ccccc2)c(=S)[nH]1", "CPE inhibition": "inconclusive: 36.9%"},
      {"smiles": "CCN1CCN(CCNC(=O)c2ccc(/C=C3/Sc4ccccc4N(Cc4cccc(C)c4)C3=O)cc2)CC1", "CPE inhibition": "inconclusive: 23.4%"},
      {"smiles": "Cc1ccc(Nc2nc(-c3sc(N)nc3C)cs2)cc1", "CPE inhibition": "active: 46.6%"},
      {"smiles": "C=CCN1C(=O)/C(=C2/Sc3ccccc3N2CC)SC1=S", "CPE inhibition": "inconclusive: 44.9%"},
      {"smiles": "CN(C)C(=O)CCc1ccc2c3c([nH]c2c1)[C@]1(CCc2ccccc2)[C@@H](C(=O)N2CCCCC2)C[C@H](CC(=O)NCc2ccco2)C(=O)N1CC3", "CPE inhibition": "inactive: -9.6%"},
      {"smiles": "C[C@H](CO)N1C[C@H](C)[C@@H](CN(C)Cc2ccccc2)Oc2ncc(Br)cc2C1=O", "CPE inhibition": "inactive: 7.99%"},
      {"smiles": "COc1cccc(CNC(=O)c2cccnc2Sc2ccc(Cl)cc2)c1", "CPE inhibition": "inconclusive: 20.8%"},
      {"smiles": "N#Cc1ccc(-c2ccc([C@@H]3[C@H](CO)N4CCCCN(S(=O)(=O)c5ccccc5)C[C@@H]34)cc2)cc1", "CPE inhibition": "active: 23.4%"},
      {"smiles": "CO[C@@H]1CN(C)C(=O)c2ccc(NC(=O)c3cnccn3)cc2OC[C@H](C)N(C(=O)C2CC2)C[C@H]1C", "CPE inhibition": "inactive: -3.96%"},
      {"smiles": "C[C@@H]1CN([C@@H](C)CO)C(=O)Cc2cc(N(C)C)ccc2O[C@@H]1CN(C)Cc1ccc(C(F)(F)F)cc1", "CPE inhibition": "active: 26.5%"},
      {"smiles": "Cc1ccc(S(=O)(=O)N(C)C[C@H]2Oc3ccc(NC(=O)Nc4ccc5c(c4)OCO5)cc3C(=O)N([C@@H](C)CO)C[C@H]2C)cc1", "CPE inhibition": "inconclusive: 30.8%"},
      {"smiles": "COCC#Cc1ccc2c(c1)O[C@@H](CN(C)S(=O)(=O)c1ccc(F)cc1)[C@H](C)CN([C@@H](C)CO)S2(=O)=O", "CPE inhibition": "inactive: -2.27%"},
      {"smiles": "CCCCNC(=O)C1(C)CCN1C(=O)c1c(F)ccc(C)c1F", "note": "(centres undefined)", "CPE inhibition": "inconclusive: 41.4%"},
      {"smiles": "O=C(CCN1C(=O)S/C(=C\\c2ccc(Cl)cc2)C1=O)Nc1ccc(C(=O)O)cc1", "CPE inhibition": "inconclusive: 43.3%"},
      {"smiles": "CSc1ccccc1NC(=O)CN(C)CC(=O)Nc1ccccc1N1CCOCC1", "CPE inhibition": "inactive: 1.22%"},
      {"smiles": "CC(=O)N(C)C[C@H]1Oc2cc(-c3ccccc3)ccc2S(=O)(=O)N([C@@H](C)CO)C[C@@H]1C", "CPE inhibition": "active: 33.4%"}
    ]}
  ]
}
